In patent US6147076A, “Analogues of N-acetylardeemin, method of preparation and uses thereof” (priority 1996, dated 2000):
For part of these data: Some results come without the dose or concentration used.

Experiments:
[1] = tested on: vinblastine-resistant CCRF-CEM cells (CCRF-CEM/VBL100); experiment: Two drug combination study of vinblastine and 5-N-acetylardeemin on vinblastine-resistant CCRF-CEM, 72 hr, XTT assay; type: cell-based, human
Description: Vinblastine-resistant CCRF-CEM Cell Line at 72-HR Exposure Time.
Based on XTT Assay. (large-scale study)

CCRF-CEM cells = experiment: Two drug combination study of vinblastine and 5-N-acetylardeemin on CCRF-CEM, 72 hr, XTT assay; type: cell-based, human; details: Table 2, drug alone
Description: CCRF-CEM Cell Line at 72-HR Exposure Time. Based on XTT

Row | Compound | m ([1]; Table 3, drug alone) | m ([1]; Table 4, drug alone) | m (slope of median-effect plot) (CCRF-CEM cells)
1 | C=CC(C)(C)C12CC3c4nc5ccccc5c(=O)n4C(C)C(=O)N3C1N(C(C)=O)c1ccccc12 (stereo not drawn) [5-N-Acetylardeemin] | 1.233 | 1.101 | .78648
2 | CC[C@]1(O)C[C@@H]2CN(CCc3c([nH]c4ccccc34)[C@@](C(=O)OC)(c3cc4c(cc3OC)N(C)[C@H]3[C@@](O)(C(=O)OC)[C@H](OC(C)=O)[C@]5(CC)C=CCN6CC[C@]43[C@@H]65)C2)C1 [Vinblastine, reference compound] | 2.392 | 1.73 | 2.535
